Test results published in PubChem BioAssay AID493014 (National Center for Advancing Translational Sciences (NCATS), 2011).
The list shows a part of the results. Shown are side measurements of this screen, not its main read-out; they come without a call. Most of these compounds were active or inconclusive in the main read-out, so they are no random draw. Words in brackets tell the shape of the fitted curve; partial curves, single points and poor fits give uncertain potencies.

Experiment: qHTS Assay to Find Inhibitors of Chronic Active B-Cell Receptor Signaling
Conditions: ABC-DLBCL IkBa-CBG/CBR reporter, luminescence ratio (green luciferase fused to IkBa over red control in TMD8 lymphoma cells), 4 h
Procedure, shortened: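 Concentration-response series (up to 46 uM) were applied to TMD8 dual-reporter cells for 4 h at 37C with doxycycline. Green/red ratio, after filter-overlap correction, defined %Activity; red signal alone was normalised to basal cells and zero luminescence.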

[1] = measured here: CBR red luminescence, cell number
[2] = measured here: IkBa-CBG green luminescence

Compound: C/C(=N\Nc1cc(N2CCOCC2)nc(C)n1)c1ccc(F)cc1
- AC50 [1]: 5.62 µM [rising, single point]

Compound: O=c1c2ccccc2c(-c2n[nH]c(=S)o2)nn1Cc1ccccc1
- AC50 [1]: 10 µM [falling, partial curve]

Compound: CCC(Sc1nnnn1C)C(=O)Nc1ccc(C(C)=O)cc1 (stereo unspecified)
- AC50 [1]: 23.1 µM [rising, partial curve, poor fit]

Compound: CC(=O)Nc1ccc(C2=CC(=O)C[C@H](c3ccc(Cl)cc3)C2)cc1
- AC50 [1]: 32.6 µM [falling, partial curve, poor fit]

Compound: CCOC(=O)COc1c(OC)cc(Cl)cc1C1Nc2ccccc2C(=O)N1c1ccccc1 (stereo unspecified)
- AC50 [1]: 16.4 µM [falling, single point]

Compound: CCOc1ccc2c(c1)C(C)=CC(C)(C)N2S(=O)(=O)c1ccc(C)cc1
- AC50 [1]: 3.16 µM [rising, full curve]
- AC50 [2]: 3.55 µM [falling, full curve]

Compound: C/C(=N\NC(=O)c1cccc(S(=O)(=O)N2CCOCC2)c1)c1ccco1
- AC50 [1]: 6.31 µM [rising, partial curve, poor fit]

Compound: Cc1ccc(-c2cc(-c3ccc(F)cc3)n[nH]2)c(O)c1
- AC50 [1]: 17.8 µM [falling, single point]

Compound: O=C1CCCC2=C1C(c1ccncc1)n1c(nc3ccccc31)N2 (stereo unspecified)
- AC50 [1]: 6.31 µM [falling, single point]

Compound: O=C(NNC(=S)NC(=O)c1cccnc1)c1ccc(F)cc1
- AC50 [1]: 20 µM [falling, partial curve]

Compound: COc1ccc(CCNC(=O)COC(=O)Cn2cnc3ccccc32)cc1OC
- AC50 [1]: 10 µM [rising, partial curve, poor fit]

Compound: O=C(CSc1nc(Cc2ccccc2)nc2ccccc12)Nc1nc2c(s1)CCCC2
- AC50 [1]: 32.6 µM [falling, single point]

Compound: O=C(Cc1cccc2ccccc12)NNC(=O)Nc1ccc(Cl)cc1
- AC50 [1]: 0.447 µM [rising, partial curve, poor fit]

Compound: Fc1ccccc1/C=C1\CCCC2=C1Nc1ncnn1C2c1ccccc1F (stereo unspecified)
- AC50 [1]: 23.1 µM [falling, partial curve]
- AC50 [2]: 25.9 µM [rising, partial curve, poor fit]

Compound: CCOC(=O)C1=C(C)N(C)C(=O)NC1c1c(C)nn(-c2ccccc2)c1C (stereo unspecified)
- AC50 [1]: 25.9 µM [rising, single point]

Compound: Cc1ccccc1Cn1ccc(NC(=O)c2onc(C)c2Cl)n1
- AC50 [1]: 1.46 µM [falling, full curve, poor fit]

Compound: Cc1nn(Cc2ccccc2Cl)c(C)c1C(=O)NC1=NCCS1
- AC50 [1]: 0.251 µM [rising, full curve, poor fit]

Compound: Oc1ccccc1-c1cc(-c2ccc(F)cc2)n[nH]1
- AC50 [1]: 5.01 µM [falling, partial curve]

Compound: Cc1c(C(=O)N2CCCC2)sc(NC(=O)c2ccco2)c1C#N
- AC50 [1]: 20.6 µM [falling, single point]

Compound: CC(=O)OCC1(C)CN(c2ccccc2)N(C(C)=O)C1=O (stereo unspecified)
- AC50 [1]: 2.51 µM [falling, partial curve, poor fit]

Compound: CCOC(=O)CC(=O)CSc1nnc2c(n1)[nH]c1ccccc12
- AC50 [1]: 2.82 µM [rising, partial curve, poor fit]

Compound: CCCc1cnc(N2CCN(C(=O)c3ccccc3)CC2)nc1
- AC50 [1]: 7.08 µM [falling, partial curve, poor fit]

Compound: Cc1ccc(OCC(=O)N2CC3(C)CC2CC(C)(C)C3)cc1 (stereo unspecified)
- AC50 [1]: 46.1 µM [rising, single point]

Compound: COc1ccc(O)c(-c2c(-c3ccc(Cl)cc3)n[nH]c2C)c1
- AC50 [1]: 28.2 µM [falling, single point]

Compound: CCN(CC(=O)NC(C)(C)C)C(=O)c1ccc2c(c1)S(=O)(=O)c1ccccc1C2=O
- AC50 [1]: 14.1 µM [rising, partial curve, poor fit]

Compound: Cc1ccc(C(=O)NC(=S)N2CCN(c3cc(C)ccc3C)CC2)cc1
- AC50 [1]: 8.91 µM [rising, partial curve, poor fit]

Compound: COc1ccc(/C=C/C(=O)Nc2cccc(S(=O)(=O)NC3=NCCCCC3)c2)cc1
- AC50 [1]: 8.91 µM [falling, partial curve, poor fit]

Compound: Cc1ccccc1N(CC(=O)Nc1ccc(F)cc1)S(C)(=O)=O
- AC50 [1]: 15.8 µM [falling, partial curve, poor fit]

Compound: O=C1c2ccc(-c3ccc(F)cc3OCc3ccccc3)cc2S(=O)(=O)c2cccc(C(=O)N3CCN(c4ncc(Br)cn4)CC3)c21
- AC50 [1]: 29.1 µM [rising, partial curve, poor fit]

Compound: COc1cccc(-c2noc(C3CCCN(C(=O)c4ccccc4OC)C3)n2)c1 (stereo unspecified)
- AC50 [1]: 15.8 µM [falling, single point]

Compound: Cc1cc(/C=N/NC(=O)c2cccc(N(C)C)c2)c(C)n1-c1cc(C(=O)O)cc(C(=O)O)c1
- AC50 [1]: 14.1 µM [falling, partial curve, poor fit]

Compound: O=C(NCCCO)c1ccc2[nH]c3c(c2c1)CCCC3
- AC50 [1]: 29.1 µM [rising, single point]

Compound: COc1ccc2cc(C(=O)C3CCCN(Cc4cnc(N5CCOCC5)s4)C3)ccc2c1 (stereo unspecified)
- AC50 [1]: 11.2 µM [falling, partial curve]

Compound: CC1CCN(CCCNC(=O)c2cc3c(Cl)nc4ccccc4c3s2)CC1
- AC50 [1]: 14.1 µM [falling, single point]

Compound: O=C1N=C(N2CCc3ccccc3C2)S/C1=C\c1ccc(O)cc1
- AC50 [1]: 35.5 µM [falling, single point]

Compound: CCN(CC)N=Nc1ccc(C(=O)O)cc1
- AC50 [1]: 16.4 µM [falling, single point]

Compound: CCn1cc(/C=N\NC(=O)c2ccc(F)cc2)cn1
- AC50 [1]: 29.1 µM [falling, single point]

Compound: Cn1cc([N+](=O)[O-])c(C(=O)Nc2cc(Oc3cccnc3)cc([N+](=O)[O-])c2)n1
- AC50 [1]: 2.51 µM [falling, full curve, poor fit]

Compound: CCC(=O)NC(=S)Nc1cccc(NC(=O)c2ccccc2Cl)c1
- AC50 [1]: 0.794 µM [falling, partial curve, poor fit]

Compound: COc1ccccc1NC(=O)N1CCN(CCc2ccccc2)CC1
- AC50 [1]: 35.5 µM [falling, single point]

Compound: CN(Cc1nc2c(s1)CCCC2)C(=O)CCc1nnc(-c2ccccc2)o1
- AC50 [1]: 10 µM [rising, partial curve, poor fit]

Compound: COc1ccc2[nH]cc(CCNS(=O)(=O)c3ccccc3)c2c1
- AC50 [1]: 35.5 µM [rising, single point]

Compound: CCOC(=O)/C=C/c1ccc2oc3ccccc3c(=O)c2c1
- AC50 [1]: 20 µM [rising, partial curve, poor fit]

Compound: Cc1ccc(S(=O)(=O)N2CCC(C(=O)N3CCC3)CC2)cc1
- AC50 [1]: 2.82 µM [rising, full curve, poor fit]

Compound: COc1cccc(Nc2nc(Nc3ccc(Cl)c(C(=O)O)c3)nc(C)c2[N+](=O)[O-])c1
- AC50 [1]: 1.84 µM [falling, partial curve, poor fit]
- AC50 [2]: 1.16 µM [rising, full curve, poor fit]

Compound: CCn1c(=O)cc(OCC(=O)NCc2ccco2)c2ccccc21
- AC50 [1]: 25.1 µM [rising, single point]

Compound: Cc1ccccc1Nc1nc(N)nc(COC(=O)c2ccccc2)n1
- AC50 [1]: 2.31 µM [rising, partial curve, poor fit]

Compound: Cc1ccc(C(=O)NCC(=O)OCC(=O)Nc2ccccc2C#N)s1
- AC50 [1]: 28.2 µM [rising, single point]

Compound: N/C(=N\OC(=O)c1cccc(Cl)c1)c1ccccn1
- AC50 [1]: 8.2 µM [falling, partial curve]

Compound: Cc1cc(C)cc(NC(=O)c2sc3nc(C)cc(C)c3c2N)c1
- AC50 [1]: 12.6 µM [falling, partial curve, poor fit]

Compound: CC(=O)c1ccc(N2CCN(S(=O)(=O)c3cc4c(cc3C)NC(=O)CO4)CC2)cc1
- AC50 [1]: 17.8 µM [rising, single point]

Compound: O=C(/C=C(\O)c1ccccc1)C(=O)NNC(=O)c1ccccc1[N+](=O)[O-]
- AC50 [1]: 4.47 µM [falling, full curve]

Compound: OCCCCc1nccc2c1[nH]c1ccccc12
- AC50 [1]: 25.1 µM [falling, single point]

Compound: Cc1nn(-c2cccc(Cl)c2)c2c1C(c1ccncc1)C(C#N)=C(N)O2 (stereo unspecified)
- AC50 [1]: 0.0146 µM [rising, full curve, poor fit]

Compound: CCC(CC)C(=O)N1CCN(Cc2ccc3c(c2)OCO3)CC1
- AC50 [1]: 29.1 µM [falling, single point]

Compound: COc1ccccc1CNC(=O)c1cc2ccccc2o1
- AC50 [1]: 0.355 µM [falling, full curve, poor fit]

Compound: COc1cc2cc(C(=O)N3CCC(Cc4ccccc4)CC3)[nH]c2cc1OC
- AC50 [1]: 28.2 µM [rising, single point]

Compound: c1ccc(-c2cc(-c3ccc(N4CCOCC4)cc3)nc3ccccc23)cc1
- AC50 [1]: 16.4 µM [rising, partial curve, poor fit]

Compound: Cc1ccc(OCCNC(=O)c2cncc(Br)c2)cc1C
- AC50 [1]: 0.562 µM [rising, full curve]

Compound: N#Cc1ccncc1Sc1ccc(Cl)cc1
- AC50 [1]: 12.6 µM [rising, partial curve, poor fit]

Compound: COc1ccc(NC(=O)Nc2ccc(F)cc2F)cc1
- AC50 [1]: 10 µM [falling, partial curve]

Compound: O=C(NCc1cccc2ccccc12)c1cccs1
- AC50 [1]: 6.51 µM [rising, full curve]

Compound: Cc1ccc(C(=O)NCCc2ccccc2)cc1S(=O)(=O)N1CCOCC1
- AC50 [1]: 29.1 µM [rising, single point]
